Test results taken from US20230137790A1, “STABLE INJECTABLE EPINEPHRINE FORMULATIONS INCLUDING A METAL-CHELATING AGENT” (Amphastar Pharmaceuticals, Inc., priority 2020, published 2023).
Read-outs that look alike come from different tables or passages of the source.

Compound: O=C([O-])CN(CCN(CC(=O)[O-])CC(=O)O)CC(=O)O.[Na+].[Na+] [EDTA, ethylene diamine tetra-acetate disodium]
- Zinc Bound to EDTA (EDTA Concentration Level 1 μg/mL): 0.19 µg/mL
- Zinc Bound to EDTA (EDTA Concentration Level 2 μg/mL): 0.4 µg/mL
- Zinc Bound to EDTA (EDTA Concentration Level 4 μg/mL): 0.8 µg/mL
- Zinc Bound to EDTA (EDTA Concentration Level 8 μg/mL): 1.6 µg/mL
- Zinc Bound to EDTA (EDTA Concentration Level 10 μg/mL): 1.9 µg/mL
- Zinc Bound to EDTA (EDTA Concentration Level 20 μg/mL): 3.9 µg/mL
